Taken from: PubChem BioAssay AID652259 (Drosophila RNAi Screening Center, 2013)

Assay: 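Identify new Wingless signalling regulators in fly cells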 (primary screen)
Cell system: Drosophila clone 8 imaginal disc epithelial cells
Knock-down reagent: long dsRNA against Drosophila genes
Challenge: pathway stimulated by co-transfected Wingless expression plasmid
Detection: 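Firefly luciferase from a tcf-site Wingless reporter, measured alongside co-transfected Renilla luciferase that tracks transfection; pathway stimulated by a Wingless plasmid; the firefly-to-Renilla ratio is not deposited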
Scale: firefly reporter light: higher = more Wg reporter light, before normalisation; Renilla control light: higher = more transfected or surviving cells
Active means: 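Strong candidates differ from their plate mean by at least two out of four per-plate statistical tests; weak candidates meet just one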
Calls: active = candidate regulator (raises or lowers reporter); inactive = not a candidate
The screen tested about 22,000 reagents; below is a random part of those that have a named target and a result. In the full data, 233 (1.1%) are marked active. 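Light values are raw, unnormalised plate reads; the ratio scores behind the reporter calls were not deposited.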 Unmarked entries are inactive. Not stated in the record: the amount of reagent, the time to read-out, the dose of the treatment.

firefly reporter light, replicate 1 | firefly reporter light, replicate 2 | Renilla control light, replicate 1 | Renilla control light, replicate 2 | target | dsRNA
22824 | – | 12032 | – | CG2256 | DRSC18220
15657 | – | 9853 | – | PICK1 | DRSC01268
2834 | 7753 | 1241 | 3635 | PICK1 | DRSC02936
15248 | 9.46e5 | 6672 | 4.39e5 | Mkrn1 | DRSC11870
5888 | – | 1929 | – | Acp53C14a | DRSC07224
44482 | – | 6476 | – | CG15036 | DRSC17968
11049 | – | 2728 | – | CG31391 | DRSC16047
21322 | – | 9659 | – | et | DRSC19582
2672 | 6234 | 1402 | 2326 | CG14891 | DRSC15013
14304 | – | 3656 | – | CG6908 | DRSC16131
18060 | – | 15488 | – | Loxl1 | DRSC14303
9689 | – | 7829 | – | Cyp6v1 | DRSC20565
7745 | – | 3366 | – | CG34433 | DRSC15077
7408 | – | 3228 | – | Hph | DRSC12164
10801 | – | 1797 | – | Hph | DRSC12251
7.49e5 | 7.78e5 | 3.19e5 | 4.20e5 | Hph | DRSC21876
1831 | 7580 | 973 | 1776 | Myt1 | DRSC11228
2432 | 5205 | 1413 | 1785 | CG18596 | DRSC15355
5465 | – | 2121 | – | Rh50 | DRSC08692
7664 | – | 3459 | – | Rpp14b | DRSC15063
13740 | – | 7648 | – | sn | DRSC18834
4425 | 14328 | 1435 | 4540 | Vha68-2 | DRSC02721
2544 | 8377 | 802 | 3096 | CG9316 | DRSC03195
8288 | – | 3216 | – | dbo | DRSC11339
23617 | – | 19557 | – | Poxn | DRSC05589
6423 | – | 3200 | – | Poxn | DRSC07512
37093 | – | 6321 | – | Qsox3 | DRSC16096
3095 | 10176 | 1478 | 2986 | ND-20 | DRSC20164
4098 | – | 1669 | – | Prm | DRSC08941
3261 | – | 1194 | – | Prm | DRSC08942
9008 | – | 3904 | – | Prm | DRSC11255
